Results: patent US20100069451A1, “SALT OF 3-BENZYL-2-METHYL-2,3,3A,4,5,6,7, 7A- OCTAHYDROBENZO[D]ISOXAZOL-4-ONE” (ABIOGEN PHARMA S.P.A, priority 2006, published 2010)
Further values from the same series stand in other lists.

Experiment: Stability test of BTG 1640 salts under storage conditions: total impurities
Type: physicochemical
Settings: time 0 (months)
Procedure: Contemporaneously, the impurity analysis in the conditions a)-d) of T/% RH were carried out.
As a confirmation of such evidence, a test for the evaluation of the impurity percentage of the sample subjected to the same conditions a)-d) of T/% RH was parallely carried out. The experimental values in Table 4 were obtained.

| SMILES | % impurities (T = 5° C.) [%] | % impurities (T = 40° C., humidity 75% RH) [%] |
| --- | --- | --- |
| CN1OC2CCCC(=O)C2C1Cc1ccccc1.O=C(O)/C=C\C(=O)O (stereo not drawn) [BTG 1640 maleate] | 0.23 | 0.23 |
| CN1OC2CCCC(=O)C2C1Cc1ccccc1.CS(=O)(=O)O (stereo not drawn) [BTG 1640 methanesulphonate] | 0.42 | 0.42 |
| CN1OC2CCCC(=O)C2C1Cc1ccccc1.O=C(O)CCC(=O)O (stereo not drawn) [BTG 1640 succinate] | 0.77 | 0.77 |
